The text below walks through data of PubChem BioAssay AID1487 (National Center for Advancing Translational Sciences (NCATS), 2009).

The test in a line: qHTS Assay for Modulators of Lamin A Splicing. Conditions: HeLa LMNA splicing GFP/RFP minigene ratio, 48 h. In outline: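 S3 HeLa stable clones carrying a lamin A-EGFP splicing minigene plus DsRed2 were seeded at 600 cells/well in Opti-MEM with 2% FBS, pin-dosed and incubated 48 h at 37°C. Acumen cytometry (488 nm) gave the GFP/RFP total-intensity ratio.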
In general terms: In qHTS, concentration-response curves come from the screen itself.

Where [1] appears, read: measured here: GFP splicing reporter channel.
[2] abbreviates: measured here: RFP viability control channel.

The list shows a part of the results. These are further read-outs of the screen, such as a control signal, another cell line or another target. No call is given for them. Most of these compounds were active or inconclusive in the main read-out, so they are no random draw. The note in brackets gives the kind of curve behind each potency; many fits are weak.

Regarding `C[C@@H]1C[C@H]2[C@@H]3C[C@H](F)C4=CC(=O)C=C[C@@]4(C)[C@]3(F)[C@H](O)C[C@]2(C)[C@@]1(O)C(=O)CO`, the AC50 (commonly the concentration giving half of the maximal activity seen) is 0.00794 µM [rising, full curve] under setting [1] and 14.1 µM [falling, single point] under setting [2].

For the molecule `Cc1cc(OCc2nc(-c3ccncc3)no2)cc(C)c1Cl`, the AC50 reads like this: under setting [1], 3.98 µM [falling, full curve, poor fit]; under setting [2], 3.98 µM [falling, full curve].

Take `O=C1CCC(=O)N1OCCOc1ccccc1`: the AC50 under setting [1] was 0.316 µM [rising, full curve, poor fit].

`Cc1cc(C)nc(Sc2ncnc(N)c2[N+](=O)[O-])n1`: the AC50 by setting is: under setting [1], 14.1 µM [falling, partial curve, poor fit]; under setting [2], 35.5 µM [falling, single point].

Consider `O=S(=O)(c1ccccc1)c1nc(-c2ccc(Cl)cc2Cl)oc1N1CCCCC1`, for which the AC50 is, setting by setting: under setting [1], 12.6 µM [rising, single point]; under setting [2], 14.1 µM [rising, partial curve].

Turning to `COc1ccc(C(C)(C)C)cc1NC(=O)COC(=O)C(C)C`, the AC50 under setting [1] is 1.26 µM [falling, full curve, poor fit].

In the case of `COc1ccc2c(c1)CCC1=C2NC(=S)NC1c1ccc(N(C)C)cc1` (stereo not drawn), the AC50 by setting is: under setting [1], 35.5 µM [rising, single point]; under setting [2], 31.6 µM [rising, single point].

On to `Oc1[nH]c2ccccc2c1N=NC(=S)NCCc1ccccc1`, for which, under setting [2], the AC50 was 20 µM [rising, partial curve].

On to `COc1ccc(CCNC(=O)C2CCN(Cc3nc(-c4ccccc4F)oc3C)CC2)cc1OC`, for which the AC50 is 17.8 µM [rising, single point] under setting [1] and 31.6 µM [rising, single point] under setting [2].

`Cc1cc(=O)n2cccc(O)c2n1`: the AC50 under setting [1] was 10 µM [falling, partial curve, poor fit] and the AC50 under setting [2] is 6.31 µM [falling, full curve, poor fit].

With `CCCCN(CCCNc1ncnc2nc[nH]c12)c1ccccc1`, the AC50 runs as follows: under setting [1], 12.6 µM [rising, single point]; under setting [2], 35.5 µM [rising, single point].

As to `COC(=O)C1=C(N)Oc2cc(N(C)C)ccc2C1c1ccccc1OC` (stereo not drawn), the AC50 under setting [2] was 35.5 µM [falling, single point].

On to `COC(=O)c1cc2c(ccn2-c2ccc(F)cc2)n1Cc1ccc(OC)cc1`, for which the AC50 under setting [2] was 22.4 µM [rising, single point].

As for `O=C(NCCCN1CCOCC1)C(=O)N/N=C/c1c2ccccc2cc2ccccc12`, the AC50 is, setting by setting: under setting [1], 11.2 µM [rising, partial curve]; under setting [2], 12.6 µM [rising, partial curve].
